Construct, isoform or probe ends are uncertain for at least one entry. At least one verdict was read from the data and is not stated in words by the source. Protein sequences can lack the tags named with them.
Target: T1, recombinant (His)6-Bwc2 (Cryptococcus neoformans var. neoformans JEC21) (UniProt Q5EGQ1)
T1 sequence (looked up): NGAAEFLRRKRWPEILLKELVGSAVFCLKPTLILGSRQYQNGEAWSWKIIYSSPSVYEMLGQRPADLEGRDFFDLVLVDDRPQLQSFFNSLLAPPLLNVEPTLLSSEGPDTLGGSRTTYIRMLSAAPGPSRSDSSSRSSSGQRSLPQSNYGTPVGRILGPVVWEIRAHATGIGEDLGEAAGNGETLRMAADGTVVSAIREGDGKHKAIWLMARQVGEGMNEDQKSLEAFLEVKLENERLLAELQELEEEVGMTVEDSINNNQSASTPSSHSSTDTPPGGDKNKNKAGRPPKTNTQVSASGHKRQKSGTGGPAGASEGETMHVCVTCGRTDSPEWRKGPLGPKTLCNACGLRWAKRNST
Experiment: competition with a labelled probe
Conditions: cold P1 600 and 900 ng against labelled P1, 50 ug Bwc2; 1X EMSA buffer (from 5X: 20% w/v glycerol, 5 mM MgCl2, 250 mM NaCl, 2.5 mM EDTA pH 8, 10 mM DTT, +/-12 uM ZnSO4) + 1X phosphate buffer, 20 ul; recombinant protein; residues 26-383; label: 32P (5', T4 PNK); probe letters rebuilt from the primers and the genome

Sequence: GTAGTCACCAGTCATTCAGTTACTCTGTTATGACGTGACGTCGTTACTCTCGATCTTCATCTCGATCTCCACCTTGCAAGCTTTTCAGGCTTTTTACTCATCGTTCACTATATAATACGATACCACACTTGACATTTCTTCGGTATGTATAAAACGCAGTCGCGAGTACTTCCTTCTGCTTTTGCAACAAACACGTCTGCATTTGTTGCCAAGTATTTATATCAGCATTAAGTACATGAGGTTC (double strand) [P1 (UVE1 promoter)]
- binding result: binds

— PMC3764193
